Measured values published in patent publication CN111944047A.
Results are given in words; binding and its absence hold for the method and conditions named. Some binding calls cover weakened binding; strength is not graded here. Each block holds one binder with its values, some of them ahead of it.

Sequences of proteins named here, by UniProt entry; tags and fusion partners are left off. A change or cut given only in a name is not applied to a line headed by its entry. Residues count along the entry.
UniProt Q02223: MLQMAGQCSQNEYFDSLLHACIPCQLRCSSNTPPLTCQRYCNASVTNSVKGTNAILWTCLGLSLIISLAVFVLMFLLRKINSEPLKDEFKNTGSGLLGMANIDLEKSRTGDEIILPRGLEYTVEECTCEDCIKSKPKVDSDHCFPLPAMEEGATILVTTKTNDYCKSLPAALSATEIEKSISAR
hBCMA-hFc: residues 1-54 of Q02223

Experiments:
hBCMA-hFc (human) = hBCMA-hFc (human) (UniProt Q02223); test: Fortebio Octet K2 / Nicoya OpenSPR
[1] = target: BCMA on BCMA-positive MM1S cells (UniProt Q02223); test: His-tagged ScFv2 in 2 dilutions incubated with BCMA-positive MM1S and BCMA-negative K562 cells

binding (hBCMA-hFc (human)): binds
B1: ScFv1 (scFv)
scFv: DIVMTQSPDSLAVSLGERATINCRASESVSIHGTHLMHWYQQLPGTPPKLLIYAASNLESGVPDRFSGSGSGTDFTLKISPVEAEDVGVYYCQQSIEDPRTFGGGTKLEIKGSTSGSGKPGSGEGSTKGQVQLVQSGPALVKPGASVKVSCKASGYTFTDYYMNWVRQAHGQGLEWMGVINPYNGGTDYNQKFKGRVTMTRDTSISTAYMELSSLRSEDTAVYYCARSVYDYPFDYWGQGTLVTVSS

binding [1]: binds
binding (hBCMA-hFc (human)): binds
B2: ScFv2 (scFv)
scFv: DIVLTQSPASLAVSLGQRATITCRASESVSIHGTHLMHWYQQKPGQPPVLVIYAASNLESGVPARFSGSGSGTDFTLKIHPVEAEDVGVYYCQQSIEDPRTFGGGTKLEIKGSTSGSGKPGSGEGSTKGQVQLVQSGPEVKKPGASVKVSCKASGYTFTDYYMNWVRQMHGKGLEWMGVINPYNGGTDYNQKFKGRVTITADKSTSTAYMELSSLRSEDTAVYYCARSVYDYPFDYWGQGTLVTVSS
